These results are taken from PubChem BioAssay AID445 (National Center for Advancing Translational Sciences (NCATS), 2006).

The structures appear in SMILES notation. Several values for one entry are separate records, joined by “and”; a condition that tells them apart may be missing. Equal values may be shown once. This is one part of the list. The main result of the screen is listed elsewhere. These columns were measured beside it and carry no call. Compounds called inactive in the main read-out are mostly missing here. Potencies come from curve fits of mixed quality, noted in brackets.

A short description of this assay: IkB Signaling. Particulars: ABC-DLBCL IkBa-CBG/CBR dual luciferase ratio (green luciferase fused to IkBa over red control in OCI-Ly3 lymphoma cells), 4 h; measured here: control luc red channel unless noted. The method in brief:
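Luminescence ratio of IκBα-fused green versus native red beetle luciferase in OCI-Ly3 cells, 4 h post-doxycycline with compound; red signal alone, scaled from basal (0%) to zero light (-100%), flagged nonspecific or cytotoxic effects.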
`CCN1Cc2cccc(C(=O)Nc3ccc(F)cc3)c2C1=O`: the AC50 is 0.0631 µM [rising, full curve]. On to `COC(=O)c1c(NC(=O)c2ccc(S(=O)(=O)N3CCCCC3)cc2)sc2c1CCN(C)C2`, for which the half-maximal activity concentration (AC50) is 39.8 µM [falling, single point].

For the compound `Cc1ccc(-n2c(SCc3nc(-c4ccccc4C)no3)nnc2-c2ccncc2)cc1C`, the AC50 is 25.1 µM [falling, partial curve]. On to `CCn1cc2nc(SCc3cccc(C(F)(F)F)c3)n(CCc3ccccc3)c(=O)c2n1`, for which the AC50 is 39.8 µM [falling, single point].

`COc1ccc(-c2cc(C)no2)cc1S(=O)(=O)Nc1cccc(C(F)(F)F)c1`: the half-maximal activity concentration (AC50) is 20 µM [falling, partial curve]. For the compound `Cc1c(CCNC(=O)c2ccc(C(F)(F)F)cc2)sc2nc(-c3ccc(F)cc3)nn12`, the AC50 was 3.16 µM [falling, partial curve]. Regarding `O=C1OC(=O)[C@@H]2[C@@H]1[C@@H]1CC[C@H]2O1`, the AC50 is 25.1 µM [rising, partial curve] [measured here: IkB-luc green channel] and 5.01 µM [rising, partial curve] [measured here: IkB-luc green channel]. Take `CC(=O)c1cc(-c2ccccc2)n(CC(=O)NC2CCCCCC2)c1C`: the half-maximal activity concentration (AC50) was 1.26 µM [rising, full curve, poor fit]. The same measure for `O=C(Nc1cccc(C(F)(F)F)c1)c1noc2c1CCc1ccccc1-2`: 31.6 µM [falling, single point]; for `O=C(NCCc1ccc(Cl)cc1)c1cccn1-c1nnc(N2CCCCC2)s1`: 25.1 µM [falling, partial curve]. Consider `Cc1cc(O)c(C(c2cccc(F)c2)N2CCC(C)CC2)c(=O)n1Cc1ccco1` (stereo unspecified), for which the half-maximal activity concentration (AC50) was 0.1 µM [falling, full curve, poor fit]. The same measure for `COc1ccc(N2CCN(C(=O)CSCc3nc(-c4ccccc4Cl)oc3C)CC2)cc1`: 31.6 µM [falling, partial curve].

In the case of `Cc1cccc(NC(=O)CSc2nc3c(c(=O)[nH]2)CN(Cc2ccc4c(c2)OCO4)CC3)c1C`, the AC50 is 39.8 µM [falling, single point].

In the case of `COc1cc2c(cc1NC(=O)CC1SC(N3CCCC3)=NC1=O)oc1ccccc12` (stereo unspecified), the concentration at half-maximal activity (AC50) was 31.6 µM [falling, single point].

`O=C(NCc1cccc(F)c1)c1ccc(CS(=O)c2ccccc2Cl)o1` (stereo unspecified): the half-maximal activity concentration (AC50) was 20 µM [falling, single point].

Take `CCOC(=O)N1CCc2c(sc3c2c(=O)n(Cc2ccccc2)c(=O)n3CC(=O)Nc2c(C)cccc2C)C1`: the AC50 is 15.8 µM [falling, partial curve]. To `c1ccc(CSc2ncn(-c3ccccc3)n2)cc1` belongs 15.8 µM [falling, partial curve]; to `COc1cccc(-c2cc(C(F)(F)F)nc(-n3nc(C)c(Br)c3C)n2)c1`, 2 µM [falling, full curve]. In the case of `Nc1nc(N)c(S(=O)(=O)c2ccccc2)c(Nc2ccc(Br)cc2)n1`, the AC50 is 25.1 µM [falling, single point]. Consider `c1cc2c(cc1Nc1nc(-c3ccc4c(c3)OCO4)cs1)OCCO2`, for which the AC50 is 31.6 µM [falling, single point]. In the case of `O=C(CSc1ccc2nc(-c3ccccc3)cn2n1)Nc1ccccc1C(F)(F)F`, the AC50 is 7.94 µM [rising, partial curve].

`Cc1cccc(NC(=O)C(=O)c2cc(C)n(-c3ccccc3)c2C)c1C`: the concentration at half-maximal activity (AC50) was 39.8 µM [falling, single point]. As for `O=C(Nc1cccc(-c2nc3ncccc3o2)c1)c1ccc(-c2cccc(Cl)c2Cl)o1`, the half-maximal activity concentration (AC50) was 3.98 µM [falling, partial curve]. The same measure for `COC(=O)c1c(SCC(=O)Nc2cccc(C(F)(F)F)c2)[nH]c2ccccc2c1=O`: 10 µM [falling, partial curve]; for `Cc1nn(-c2ccccc2)c2c1C1(C(=O)N(C)c3ccccc31)C(C#N)=C(N)O2` (stereo unspecified): 15.8 µM [falling, partial curve]; for `COc1ccc(-n2c(=O)c3ccccc3n(Cc3ccc(F)cc3Cl)c2=O)cc1OC`: 0.0398 µM [rising, full curve]. For `COc1ccc(NC(=O)C2CCN(C(=O)c3sc4nc[nH]c(=O)c4c3C)CC2)c(OC)c1`, the AC50 was 0.2 µM [rising, partial curve, poor fit]. With `O=C1Nc2ccc(S(=O)(=O)NCCC3=CCCCC3)c3cccc1c23`, the half-maximal activity concentration (AC50) was 7.94 µM [falling, full curve, poor fit].

For the compound `CCOc1ccc(CNC(=O)C2CCN(C3=NS(=O)(=O)C(c4ccc(C)cc4)=C3CC)CC2)cc1`, the concentration at half-maximal activity (AC50) is 25.1 µM [falling, single point]. In the case of `CCN(CC)CC(=O)c1c[nH]c2ccccc12`, the AC50 is 39.8 µM [falling, single point].

Regarding `COc1ccccc1N1CSC2=C(C#N)C(c3ccc(SC)cc3)CC(=O)N2C1` (stereo unspecified), the AC50 is 5.01 µM [falling, full curve]. The same measure for `CC1=C(C(=O)OC2CCCCCCC2)C(c2ccc(O)cc2)NC(=O)N1` (stereo unspecified): 15.8 µM [falling, partial curve]; for `OCc1cc([C@@H](O)CNCCCCCCOCCCCc2ccccc2)ccc1O`: 39.8 µM [falling, partial curve]; for `CCOC(=O)c1ccc(N2C(=O)c3n[nH]c(-c4cccs4)c3C2c2ccc(O)c(OC)c2)cc1` (stereo unspecified): 12.6 µM [falling, partial curve]. Consider `CCN(C(=O)c1cc2c(s1)-c1c(C)cccc1OC2)c1cc(C)ccc1C`, for which the AC50 is 0.794 µM [falling, full curve].

With `CCOc1ccc2oc(=O)cc(CN3CCN(c4ccc(OC)cc4)CC3)c2c1`, the AC50 was 39.8 µM [falling, single point]. Take `CCOc1cc(S(=O)(=O)n2cc(-c3ccc(F)cc3)c(N)n2)cc(OCC)c1OCC`: the AC50 was 6.31 µM [falling, partial curve]. `COc1ccc(OC)c(NC(=O)Cn2c(=O)oc3cc(S(=O)(=O)NCc4ccccc4)ccc32)c1`: the AC50 is 0.794 µM [rising, full curve].

Take `CCn1c(CC(=O)Nc2cccc(OC)c2)nnc1SCC(=O)N1CCN(c2ccccc2)CC1`: the AC50 was 12.6 µM [falling, partial curve]. Consider `O=C(NC1CC(=O)N(c2ccccc2)C1)c1ccc(S(=O)(=O)N2CCOCC2)cc1` (stereo unspecified), for which the half-maximal activity concentration (AC50) was 7.94 µM [falling, single point]. As to `c1ccc(-c2cn(-c3ccccc3)c3ncnc(N4CCN(c5ccccc5)CC4)c23)cc1`, the concentration at half-maximal activity (AC50) was 20 µM [falling, single point]. Consider `COc1ccc(OC)c(NC(=O)CSc2n[nH]c(-c3ccccc3Cl)n2)c1`, for which the AC50 is 31.6 µM [falling, single point].

`COc1ccccc1N1CCN(c2ccc3cc(S(=O)(=O)N4CCCCC4)ccc3n2)CC1`: the AC50 was 39.8 µM [falling, single point]. With `O=C(NC1CCCC1)C(c1ccsc1)N(Cc1ccco1)C(=O)Cc1cccs1` (stereo unspecified), the AC50 is 6.31 µM [rising, full curve, poor fit] [measured here: IkB-luc green channel]. With `CC1CCN(C(=O)CSc2c3c(nc4cc(Cl)ccc24)CCCC3)CC1`, the AC50 is 25.1 µM [falling, partial curve]. Turning to `c1ccc(-c2oc3ncnc(NCCCn4ccnc4)c3c2-c2ccccc2)cc1`, the AC50 was 10 µM [falling, partial curve].

With `COc1ccc(Br)c2c1-c1nc(NC(=O)c3cccc(C)c3)sc1C2`, the half-maximal activity concentration (AC50) is 3.98 µM [falling, partial curve].

For the compound `CN(C)S(=O)(=O)c1ccc2c(c1)c(=O)c(C(=O)N1CCN(c3cccc(Cl)c3)CC1)cn2C`, the AC50 was 0.158 µM [falling, full curve]. To `S=c1[nH]nc(COc2ccc(Cl)cc2)o1` belongs 20 µM [falling, single point]. The same measure for `CCOc1ccccc1NC(=O)CSC1=Nc2ccccc2C2=NC(CC(=O)NC3CCCCC3)C(=O)N12` (stereo unspecified): 3.98 µM [falling, partial curve]. The same measure for `CCOc1ccc(CN2C(=O)c3ccccc3Sc3ccc(C(=O)N4CCN(C)CC4)cc32)cc1`: 3.98 µM [falling, partial curve]; for `CCC(CC)C(=O)Nc1c(C(=O)N2CCN(c3ccccc3F)CC2)oc2ccccc12`: 10 µM [falling, partial curve]; for `Cc1oc(-c2ccccc2F)nc1CS(=O)(=O)CC(=O)N1CCN(c2cccc(C(F)(F)F)c2)CC1`: 3.98 µM [falling, full curve]. Take `N#Cc1ccc(C(=O)Nc2ccc(Cl)c(-c3nc4cc(Cl)ccc4o3)c2)c(F)c1`: the AC50 is 7.94 µM [falling, full curve].

With `COc1cccc(C(=O)Nc2ccc(C)cc2)c1`, the half-maximal activity concentration (AC50) is 25.1 µM [falling, partial curve]. With `Cc1ccc(NC(=O)c2cccc(NC(=O)N3CCSc4ncccc43)c2)cc1Cl`, the concentration at half-maximal activity (AC50) was 2.51 µM [falling, full curve]. Consider `COc1ccc(N2CCN(C(=O)Cn3ncc4c3-c3cc(C)ccc3OC4)CC2)cc1`, for which the half-maximal activity concentration (AC50) was 5.01 µM [falling, partial curve]. The same measure for `COc1ccc(F)cc1S(=O)(=O)NCCc1csc(-c2ccc(Cl)cc2)n1`: 10 µM [falling, partial curve, poor fit]; for `O=C(NCc1ccco1)Nc1ccc2nsnc2c1`: 12.6 µM [falling, partial curve]. To `Cc1c(C(=O)NCc2ccc3c(c2)OCO3)oc2ccccc12` belongs 12.6 µM [falling, partial curve]; to `CCCC(=O)NCCc1nc2ccccc2n1Cc1c(F)cccc1Cl`, 25.1 µM [falling, partial curve, poor fit].
